{"source": "paper PMC12431657", "about": "“Discovery and mechanistic insights of dibenzoylmethane as a broad spectrum inhibitor of coronavirus” (PLOS Pathogens, 2025)", "key": {"[1]": {"tested_on": "HCoV-229E", "design": "species or system Huh-7; HTS, protection from HCoV-229E induced cell death, luminescent cell viability (CellCounting-Lite 2.0), inhibition rate", "details": "24 h, 10 µM; inhibitor"}, "[2]": {"tested_on": "HCoV-OC43", "design": "species or system RD; HTS, protection from HCoV-OC43 induced cell death, luminescent cell viability (CellCounting-Lite 2.0), inhibition rate", "details": "24 h, 10 µM; inhibitor"}}, "data": [{"smiles": "CN[C@H]1CCc2cc(OC)c(OC)c(OC)c2-c2ccc(OC)c(=O)cc21", "note": "[Colcemid]", "values": [{"measurement": "229E Inhibition rate", "setting": "[1]", "result": 26.8}, {"measurement": "OC43 Inhibition rate", "setting": "[2]", "result": 1.5}]}]}
